Test results reported in patent publication US20230312698A1 (NANJING GENSCRIPT BIOTECH, published 2023).
These are yes or no findings as the source states them, for the method shown. Some binding calls cover weakened binding; strength is not graded here.

Amino acid sequences for entries named in this document (tags omitted). Residues count along the entry.
UniProt O15123, residues 19-496: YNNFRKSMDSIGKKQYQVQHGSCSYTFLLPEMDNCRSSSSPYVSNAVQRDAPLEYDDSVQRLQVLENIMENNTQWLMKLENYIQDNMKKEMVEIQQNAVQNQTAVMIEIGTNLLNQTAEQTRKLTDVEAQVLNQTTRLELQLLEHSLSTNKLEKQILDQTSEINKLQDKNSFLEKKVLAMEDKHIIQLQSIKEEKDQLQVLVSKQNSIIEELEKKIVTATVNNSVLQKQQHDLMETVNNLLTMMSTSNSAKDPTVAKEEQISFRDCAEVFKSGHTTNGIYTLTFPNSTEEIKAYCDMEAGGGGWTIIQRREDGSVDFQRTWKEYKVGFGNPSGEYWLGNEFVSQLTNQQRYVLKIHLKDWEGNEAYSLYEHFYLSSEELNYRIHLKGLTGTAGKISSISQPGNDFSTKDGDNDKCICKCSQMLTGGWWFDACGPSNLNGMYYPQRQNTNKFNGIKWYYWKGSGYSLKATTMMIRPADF

What was measured:
[1] = molecular target: membrane-anchored cyno Ang2 protein expressed on CHO-K1 cells (cyno); assay: flow cytometry on CHO-K1 cells expressing membrane-anchored cyno Ang2
[2] = molecular target: membrane-anchored human Ang2 protein expressed on CHO-K1 cells (human) (UniProt O15123); assay: flow cytometry on CHO-K1 cells expressing membrane-anchored human Ang2

Row | binding [1] | binding [2] | Binder
1 | binds | binds | 4D8F2 (antibody, V domains shown, Hybridoma antibody purified with Protein-A beads) VH: DVQLQESGPGLVKPSQSLSLTCTVTGYSITSDYAWNWIRQFPGNKLEWMGYISYSGSTSYNPSLKSRISITRDTSKNQFFLQLNSVTTEDTATYYCARGVRGDMDYWGQGTSVTVSS VL: SIVMTQTPKFLLVSAGDRVTITCKASQSVSNDVAWYQQKPGQSPKLLIYYASNRYTGVPDRFTGSGYGTDFTFTISTVQAEDLAVYFCQQDYSSPFTFGSGTKLEIK
2 | binds | binds | 5A7B9 (antibody, V domains shown, Hybridoma antibody purified with Protein-A beads) VH: QIQLVQSGPELKKPGETVKISCKASGYTFTNYGVNWVKQAPGKGLKWMGWINSYSGVPTYADDFKGRFAFSLETSASTAYLQINNLKNEDTATYFCARGENNYYGGSYDWGQGTTLTVSS VL: SIVMTQTPKFLLVSAGDRVTITCKASQSVSNDVAWYQQKPGQSPKLLIYYASNRYTGVPDRFTGSGYGTDFTFTISTVQAEDLAVYFCQQDYSSPLTFGAGTKLELK
3 | binds | binds | 42C3A4 (antibody, V domains shown, Hybridoma antibody purified with Protein-A beads) VH: EVKLEESGGGLVQPGGSMKLSCVASGITFSNYWMDWVRQSPEKGLEWVAEIRLKSNNYATHYAESVKGRFTISRDDSKNSVYLQMNNLRAEDTGIYYCTRGAPLFGGYYKGVYFDYWGQGTTLTVSS VL: SFVMTQTPKSLLASAGDRVTITCQASQSVSNEVAWYQQKPGQSPKLLIYYASSRYTGVPDRFAGSGYGTDFTFTISTVQAEDLAVYFCQQDYNSPYTFGGGTKLEIK
4 | binds | binds | 46F3H4 (antibody, V domains shown, Hybridoma antibody purified with Protein-A beads) VH: EVQLHQSGPELVKPGASVKMSCKASGYTFTNYYIHWVKQSHGKSIEWIGYIYPNNGDTTYNQKFKGKATLTVDKSSSIAYMELRSLTSEDSAVYYCAVVSYSNYVAGAMDYWGQGTSVTVSS VL: SIVMTQTPKFLLVSAGDRVTITCKASQSVSNDVAWYQQKPGQSPKLLIYFASNRYTGVPDRFTGSGYGTDFTFTISTVQAEDLAVYFCQQDYSSPYTFGGGTKLEIK
5 | binds | binds | 49E4C2 (antibody, V domains shown, Hybridoma antibody purified with Protein-A beads) VH: EVKLEESGGGLVQPGGSMKLSCVASGITFSNYWMDWVRQSPEKGLEWVAEIRLKSNNYATHYAESVKGRFTISRDDSKSSVYLQMNNLRAEDTGIYYCTRGAPLFDGYYKGVYFDYWGQGTTLTVSS VL: STVMTQTPKSLLASAGDRVAITCKASQSVSNEVAWYQQKPGLSPKLLIYYASNRYTGVPDRFTGSGYGTDFTFTISTVQAEDLAVYFCQQDYNSPYTFGGGTKLEIK
6 | binds | binds | 46H3H3 (antibody, V domains shown, Hybridoma antibody purified with Protein-A beads) VH: EVKLVESGGGLVQPGGSRKLSCAASGFTFSDYGMVWVRQAPGKGLEWVAYIGSGRSTIYYADTVKGRFTISRDNPKNTLFLQMSSLRSEDTAMYYCAREDNGYSYAMDYWGQGTSVTVSS VL: DIQMTQSPASQSASLGESVTITCLASQTIGTWLAWYQQKPGKSPQLLIYAATSLADGVPSRFSGSGSGTKFSFKISSLQAEDFVSYYCQQLYSTPLTFGAGTKLELK
7 | binds | binds | 42A2A6 (antibody, V domains shown, Hybridoma antibody purified with Protein-A beads) VH: DVQLQESGPGLVKPSQSLSLTCTVTGYSITSDYAWNWIRQFPGNKLEWMGFINYSGTTSYNPSLKSRISLTRDTSKNQFFLQLNSVTTEDTATYYCARWGYSDFLYYFDYWGQGTTLTVSS VL: QIVLSQSPAILSASPGEKVTMTCRASSSVSYIHWYQQKPGYSPKPWIYATSNLASGVPARFSGGGSGTSYSLTISRVEAEDAATYYCQQWSNNPWTFGGGTKLEIK
